Certain results were filed several times, with different values. The list is limited to them. There may be further records. The values listed for one entry seem to repeat one measurement (runs, samples, wells or individuals).
Target: Recombinant MMP-9
Test: MMP-9 enzyme assay with DQ gelatin fluorescent substrate
Conditions: 22° C., EAB pH 7.0, soluble phase of extracts
Method: From the studies of repeated activity and lack of interference, we were able to identify three lead ingredients for further development (A, C, D; A & B were two forms of the same dried extract). These were tested in a second laboratory, using a more sensitive in vitro (non-cellular) assay system, again for individual activity and interference/synergy among MMP-inhibitors and the IL-1-inhibitor against all three forms of MMP. These assays used enzyme kinetic dose curves to determine the IC50 of each extract, Doxycyclin, and combinations of extracts (including the IL-1-inhibitor, e.g., Rosehips).
MMP-2 and MMP-9: Recombinant MMP-2 and MMP-9 were expressed as recombinant proteins and purified in constitutively active forms.
DQ gelatin: A highly labeled porcine gelatin substrate (Molecular Probes, Eugine, Oreg.) was used for the enzyme assays with MMP-2 and MMP-9. The substrate degradation was measured with λex at 494 nm and λem at 515 nm
To reduce any self-degradation of the gelatin substrate, all assays were performed at 22° C. The enzyme assay buffer (EAB) used for MMP-2, MMP-9, and MMP-8 was 50 mM Tris, pH 7.0, 200 mM NaCl, 5 mM CaCl2, 1 μM ZnCl2, 0.05% Brij 35. Assays were performed under conditions where the substrates were not rate limiting. […]

IC50 for MMP-9: ˜40 μg/ml and 40 μg/ml
SMILES: C[C@H]1c2cccc(O)c2C(O)=C2C(=O)[C@]3(O)C(O)=C(C(N)=O)C(=O)[C@@H](N(C)C)[C@@H]3[C@@H](O)[C@@H]21 [DOX, Doxycycline]

— US20070275104A1, “Food Compositions and Methods of Treating Periodontal Disease” (priority 2006, published 2007)
